No constants are given. Whether binding was seen depends on the method and setting. Binding seen in cells or lysates may run through a third protein. Some entries that bind do so weakly or less than the wild type. For some assays here: Where a sequence is shown, tags or fusion partners need not be part of it.
T1: FLAG–CEP215^1661-1893 (human) (UniProt Q96SN8)
T1 sequence: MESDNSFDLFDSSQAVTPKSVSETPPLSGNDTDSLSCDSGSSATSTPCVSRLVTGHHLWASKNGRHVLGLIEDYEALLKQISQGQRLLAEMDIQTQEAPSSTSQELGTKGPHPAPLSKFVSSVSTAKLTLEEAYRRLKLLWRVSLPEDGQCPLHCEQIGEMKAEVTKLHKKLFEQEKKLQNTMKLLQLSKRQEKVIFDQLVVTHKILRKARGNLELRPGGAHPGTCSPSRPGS

Amino acid sequences for entries named in this document (tags omitted).
UniProt Q8TEP8: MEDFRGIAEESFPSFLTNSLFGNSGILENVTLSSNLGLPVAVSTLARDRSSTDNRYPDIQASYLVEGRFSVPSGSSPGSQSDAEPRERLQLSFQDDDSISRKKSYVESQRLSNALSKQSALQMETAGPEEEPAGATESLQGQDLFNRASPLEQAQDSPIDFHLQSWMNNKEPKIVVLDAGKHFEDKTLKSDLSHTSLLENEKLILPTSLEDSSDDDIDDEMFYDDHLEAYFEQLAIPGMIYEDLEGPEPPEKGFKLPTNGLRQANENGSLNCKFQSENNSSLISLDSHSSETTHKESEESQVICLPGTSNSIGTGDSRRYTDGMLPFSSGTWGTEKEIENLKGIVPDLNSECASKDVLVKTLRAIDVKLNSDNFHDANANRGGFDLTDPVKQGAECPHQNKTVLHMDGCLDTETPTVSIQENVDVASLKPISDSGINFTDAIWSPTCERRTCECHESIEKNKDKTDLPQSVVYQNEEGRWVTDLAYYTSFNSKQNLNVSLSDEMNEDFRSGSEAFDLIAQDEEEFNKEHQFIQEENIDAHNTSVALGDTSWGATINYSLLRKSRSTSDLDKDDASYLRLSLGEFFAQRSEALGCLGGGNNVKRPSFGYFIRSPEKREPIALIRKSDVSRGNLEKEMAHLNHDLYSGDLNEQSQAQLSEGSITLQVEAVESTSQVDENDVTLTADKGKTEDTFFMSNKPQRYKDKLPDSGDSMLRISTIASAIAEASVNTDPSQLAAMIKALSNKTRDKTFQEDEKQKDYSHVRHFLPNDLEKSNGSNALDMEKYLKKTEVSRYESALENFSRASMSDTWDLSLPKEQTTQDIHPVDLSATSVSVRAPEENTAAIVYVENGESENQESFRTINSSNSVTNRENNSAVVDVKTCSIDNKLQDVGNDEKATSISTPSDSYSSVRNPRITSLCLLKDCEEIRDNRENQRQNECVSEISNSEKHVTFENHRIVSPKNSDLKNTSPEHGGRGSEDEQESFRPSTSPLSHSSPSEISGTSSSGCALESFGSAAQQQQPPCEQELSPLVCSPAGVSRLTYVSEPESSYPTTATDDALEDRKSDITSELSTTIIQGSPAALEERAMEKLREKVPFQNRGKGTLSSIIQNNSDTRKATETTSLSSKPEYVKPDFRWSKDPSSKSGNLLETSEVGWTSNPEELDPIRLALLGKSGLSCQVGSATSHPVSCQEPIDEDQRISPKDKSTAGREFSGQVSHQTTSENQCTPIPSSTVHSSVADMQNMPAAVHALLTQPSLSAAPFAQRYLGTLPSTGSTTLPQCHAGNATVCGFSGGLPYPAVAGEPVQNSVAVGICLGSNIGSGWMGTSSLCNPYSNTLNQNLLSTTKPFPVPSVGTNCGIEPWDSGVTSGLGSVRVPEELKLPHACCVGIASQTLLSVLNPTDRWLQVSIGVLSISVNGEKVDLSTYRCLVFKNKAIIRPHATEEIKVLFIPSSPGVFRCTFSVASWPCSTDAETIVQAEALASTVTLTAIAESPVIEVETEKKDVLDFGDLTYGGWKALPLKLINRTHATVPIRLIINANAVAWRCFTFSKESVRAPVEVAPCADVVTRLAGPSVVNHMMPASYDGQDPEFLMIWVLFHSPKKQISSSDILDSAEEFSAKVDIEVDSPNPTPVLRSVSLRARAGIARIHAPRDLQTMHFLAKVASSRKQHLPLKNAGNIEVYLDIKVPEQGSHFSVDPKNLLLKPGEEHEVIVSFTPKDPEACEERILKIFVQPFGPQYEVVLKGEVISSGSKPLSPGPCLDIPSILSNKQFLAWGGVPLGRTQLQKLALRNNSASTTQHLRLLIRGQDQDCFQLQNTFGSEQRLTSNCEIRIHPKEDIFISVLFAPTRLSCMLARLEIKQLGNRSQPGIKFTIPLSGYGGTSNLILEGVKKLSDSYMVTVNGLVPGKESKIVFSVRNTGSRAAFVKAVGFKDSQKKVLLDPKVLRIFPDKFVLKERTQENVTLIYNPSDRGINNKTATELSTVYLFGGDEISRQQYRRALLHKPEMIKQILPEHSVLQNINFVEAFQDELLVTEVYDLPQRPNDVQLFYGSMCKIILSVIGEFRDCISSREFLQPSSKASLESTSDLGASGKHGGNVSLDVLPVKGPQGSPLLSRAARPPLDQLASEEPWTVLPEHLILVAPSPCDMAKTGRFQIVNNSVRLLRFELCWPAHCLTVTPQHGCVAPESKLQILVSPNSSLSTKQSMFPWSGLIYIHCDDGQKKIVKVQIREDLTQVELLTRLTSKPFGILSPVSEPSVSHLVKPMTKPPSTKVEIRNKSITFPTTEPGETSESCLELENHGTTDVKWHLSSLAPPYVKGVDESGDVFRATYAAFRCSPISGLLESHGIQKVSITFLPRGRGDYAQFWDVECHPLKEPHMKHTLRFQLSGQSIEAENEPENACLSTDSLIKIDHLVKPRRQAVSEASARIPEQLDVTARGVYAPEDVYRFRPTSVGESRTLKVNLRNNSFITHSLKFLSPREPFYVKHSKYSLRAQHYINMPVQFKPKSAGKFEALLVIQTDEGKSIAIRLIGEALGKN

B1: MBP–CEP215^1661-1893 (domain or fragment, human, UniProt Q96SN8 1661-1893, looked up)
chain: T1 sequence
notes: Homodimer by SEC-MALS; calculated monomer mass with MBP 71.8 kDa; also called CEP215 fragment; source: bacterially expressed (pPROEX vector), purified (amylose column, SEC)

Columns and labels:
[1] = molecular target: FLAG–CEP215 ΔBS1 (human) (UniProt Q96SN8); assay: co-IP; FLAG-tagged CEP215 construct transfected in 293T, anti-FLAG antibody on protein-A-Sepharose, lysis buffer 50 mM Tris-HCl pH 8.0, 5 mM EDTA, 150 mM NaCl, 0.5% Triton X-100, 4°C; blot for the endogenous partner
[2] = molecular target: T1, FLAG–CEP215^1661-1893 (human); assay: co-IP; FLAG- and HA-tagged CEP215 fragments transiently expressed in 293T, anti-FLAG immunoprecipitation, blot with FLAG and HA antibodies

Row | Molecule | binding [1] | binding [2]
1 | endogenous CEP192 (from UniProt Q8TEP8 1-2537) | no binding | –
2 | B1 | – | binds
